Data taken from paper PMC4789638.
No constants are given. Whether binding was seen depends on the method and setting. In cells and extracts the contact can be indirect. Some results given as binding are weak or reduced against the parent protein; the word gives no strength.

By UniProt entry, the sequences of proteins in these tests, tags left out. Where a name states a change or a piece, a line headed by the entry shows the natural chain unless it says otherwise.
UniProt P49841: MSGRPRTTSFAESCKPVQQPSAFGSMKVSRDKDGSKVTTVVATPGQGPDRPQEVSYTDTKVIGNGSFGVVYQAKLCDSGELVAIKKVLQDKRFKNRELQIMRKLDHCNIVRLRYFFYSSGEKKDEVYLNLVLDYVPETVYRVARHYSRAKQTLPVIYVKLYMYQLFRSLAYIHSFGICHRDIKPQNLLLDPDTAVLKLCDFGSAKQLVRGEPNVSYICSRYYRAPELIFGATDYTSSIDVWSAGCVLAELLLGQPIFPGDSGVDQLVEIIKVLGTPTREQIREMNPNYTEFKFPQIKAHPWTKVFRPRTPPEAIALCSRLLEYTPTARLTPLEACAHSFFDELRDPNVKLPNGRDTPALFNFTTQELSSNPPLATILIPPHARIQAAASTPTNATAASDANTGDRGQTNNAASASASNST

Key:
GST-GSK3β wt = GST-GSK3β wt (UniProt P49841); experiment: pull-down; H1299 cell lysates incubated with GST-GSK3β wt or GST-GSK3β S9A; hnRNPK trapped compared (Fig. S1); only the target purified
GST-GSK3β S9A = GST-GSK3β S9A (UniProt P49841); experiment: as above
[1] = molecular target: endogenous GSK3β in H1299 cell lysate (human (endogenous in H1299)) (UniProt P49841); experiment: co-IP; H1299 cells transfected with Flag-hnRNPK, treated with or without TRAIL (20 ng/ml, 8 hours); precipitated with GSK3β antibody, blotted for Flag and GSK3β; lysis buffer 50 mM Tris pH 7.5, 150 mM NaCl, 1% NP-40, 0.5% deoxycholate, 0.1% SDS
[2] = molecular target: GST-hnRNPK fusion protein (UniProt P61978); experiment: pull-down; GST-hnRNPK (60 μg) immobilized on glutathione sepharose beads, incubated with 1.5 mg H1299 whole cell lysate protein overnight at 4 °C; Western blot with GSK3β and phospho-GSK3β (Ser9) antibodies; only the target purified

hnRNPK in H1299 cell lysates (from UniProt P61978 1-463)
binding (GST-GSK3β wt): binds | binding (GST-GSK3β S9A): binds

Flag-hnRNPK (from UniProt P61978 1-463)
binding [1]: binds

endogenous GSK3β in H1299 cell lysate (from UniProt P49841 1-420)
binding [2]: binds

phospho-GSK3β (Ser9), endogenous in H1299 cell lysate (from UniProt P49841 1-420)
binding [2]: binds
